Measurements reported in patent US20080200492A1, “METHODS FOR THE TREATMENT OF ALCOHOL ABUSE, ADDICTION AND DEPENDENCY” (priority 2006, published 2008).

How the values were obtained:
alcohol preferring rats [1] = assay: Alcohol Preferring Rats In Vivo Model, acute oral dosing, two-bottle choice; parameters: species or system rat; conditions: mean ± S.E.M., N = 14
Procedure: Adult male selectively-bred alcohol preferring rats (N=14) were used. This particular strain of alcohol drinking rat has been characterized and have been widely used to study the effects of different compounds on voluntary alcohol intake (Farren et al., 2000; Rezvani et al, 1990, 1991, 1992a, 1992b, 1999, 2000, 2003; Murphy et al, 1988; Overstreet et al., 2003, 1999; Li and McBride, 1990). Rats were housed individually in approved cages under a constant room temperature of 22+1° C. and 12:12 light-dark cycle (8:00-20:00, dark). Animal were fed Agway Prolab Rat/Mouse/Hamster 3000 formula and water ad libitum.
Alcohol intake was determined using the standard two-bottle choice method utilized in our and other laboratories for many years (Murphy et al. 1988; Rezvani et al. 1990, 1991, 1993, 1995, 1997, Rezvani and Grady, 1994, Rezvani et al., 1993). Animals were first given free access to water in a graduated Richter tube for 2 days. Next, they were given access to only a solution of 10% (v/v) ethanol for 3 consecutive days. During this period animals became accustomed to drinking from Richter tubes and to the taste and pharmacological effects of alcohol. Thereafter, they were given free access to both water and a solution of 10% alcohol for at least 4 consecutive weeks and throughout of the period of study. Rats had free access to food. Water and alcohol intake were recorded at 6 and 24 hour after the treatment, whereas food intake was measured at 24 hour. Animals' body weights were measured the day of the treatment and the day after.
After establishment of stable baseline for alcohol, food, and water intake, rats were administered (gavage) at 9:30 a.m. either with the vehicle or the compound of formula (I) at one of four doses (1,3,10 and 30 mg/kg) using a cross-over design with random assignment. To be able to compare the efficacy of the compound of formula (I) on alcohol intake naltrexone was included as a positive control. The same rats were given an oral dose of 20 mg/kg naltrexone. All animals will receive all treatments in a random order. The interval between treatments was at least 1 week. Alcohol and water intake were recorded 6 and 24 h after the drug administration and food intake was recorded at 24 hr. The volume of the drug administration was 6 ml/kg.
The results at 6 and 24 hours post-dosing are presented in Tables 3 and 4 below, as means ±SEM. Alcohol intake (g/kg) was calculated by multiplying the volume of alcohol consumed in ml by 10% and 0.7893 (ethanol density)/body weight in kg. Alcohol preference, expressed as a percentage, was calculated as follows (volume of alcohol consumed in ml/total fluid intake in ml)×100 (Rezvani and Grady, 1994; Rezvani et al., 1997). Statistical differences between drug-treated and control groups were determined by using ANOVA with repeated measures. Each treatment was compared with the corresponding vehicle value.

alcohol preferring rats [2] = assay: Alcohol Preferring Rats, Study A: Chronic Administration (14 days); format: in vivo, rat; conditions: 30 mg/kg once a day, gavage
Procedure: Adult male selectively-bred alcohol preferring rats were used in this study. The selectively bred alcohol preferring rats are widely used to study the suppressant effects of compounds on voluntary alcohol intake (Faren et al. 2000; Rezvani et al, 1990, 1991, 1992a, 1992b, 1999, 2000, 2002; 2003; Murphy et al, 1988; Overstreet et al., 1992, 1999; Li and McBride, 1995).
The rats were housed individually under a constant room temperature of 22±1° C. and 12:12 light-dark cycle (7:00-19:00, dark). Animals were fed Agway Prolab Rat/Mouse/Hamster 3000 formula and water ad libitum.
Alcohol intake was determined using a standard two-bottle choice method (Murphy et al. 1988; McBride et al. 1990; Rezvani et al. 1990, 1991, 1993, 1995, 1997, Rezvani et al., 2007a,b; Rezvani and Grady, 1994). Animals were first given free access to water in a graduated Richter tube for 1 day. Next, they were given access to only a solution of 10% (v/v) ethanol for 3 consecutive days. During this period the animals became accustomed to drinking from Richter tubes and to the taste and pharmacological effects of alcohol. Thereafter, the animals were given free access to both water and a solution of 10% alcohol for 4 consecutive weeks and throughout of the study. The animals continued to have free access to food. Water and alcohol intake were recorded at 6 and 24 hour.
After establishment of a reliable baseline for alcohol, and water intake, the animals were randomly assigned to a treatment regimen. The animals were administered once a day, via gavage, either vehicle (0.5% methylcellulose) or compound of formula (I-A) (at 30 mg/kg) or naltrexone (at 20 mg/kg) for 14 consecutive days. A group of 6-7 animals was used for each treatment. Alcohol and water intake was recorded at 6 hrs and 24 hrs after administration.
The results are presented as a means ±SEM. Alcohol intake (g/kg) was calculated by multiplying the volume of alcohol consumed in ml by 10% and 0.7893 (ethanol density)/body weight in kg. Alcohol preference, expressed as percentage was calculated as (volume of alcohol consumed in ml/total fluid intake in ml)×100 (Rezvani and Grady, 1994; Rezvani et al., 2007a). Statistical differences between drug-treated and control groups was determined by using ANOVA and Tukey Student's t test for multiple comparison.
The results from Study A provide a measure of whether or not the animals develop tolerance to the suppressant effects of the test compound following a chronic treatment. In Tables 5-8 below, the abbreviation “(I-A)” stands for the compound of formula (I-A), the abbreviation “Naltx” stands for naltrexone, and the abbreviation “EtOH” stands for ethanol.

[3] = 1 mg/kg p.o., 6 hrs post-dosing
[4] = 1 mg/kg p.o., 24 hrs post-dosing
[5] = 3 mg/kg p.o., 6 hrs post-dosing
[6] = 3 mg/kg p.o., 24 hrs post-dosing
[7] = 10 mg/kg p.o., 6 hrs post-dosing
[8] = 10 mg/kg p.o., 24 hrs post-dosing
[9] = 30 mg/kg p.o, 6 hrs post-dosing
[10] = 30 mg/kg p.o, 24 hrs post-dosing

Structure (SMILES): Cc1cccc2cccc(CN3CCC4(CC3)C(=O)N(C[C@H](O)CN)CN4c3ccc(F)cc3)c12 [Cmpd (I-A), 3-(3-amino-2-(R)-hydroxy-propyl)-1-(4-fluoro-phenyl)-8-(8-methyl-naphthalen-1-ylmethyl)-1,3,8-triazaspiro[4.5]decan-4-one]
- Total Fluid Intake (alcohol preferring rats [1]; [3]): 44.7 ± 6.60 mL/kg
- Water Intake (alcohol preferring rats [1]; [3]): 7.36 ± 1.67 mL/kg
- Food Intake (alcohol preferring rats [1]; [4]): 16.3 ± 0.773 g
- Total Fluid Intake (alcohol preferring rats [1]; [4]): 104 ± 11.1 mL/kg
- Water Intake (alcohol preferring rats [1]; [4]): 13.1 ± 2.26 mL/kg
- Total Fluid Intake (alcohol preferring rats [1]; [5]): 51.0 ± 6.23 mL/kg
- Water Intake (alcohol preferring rats [1]; [5]): 12.7 ± 2.67 mL/kg
- Food Intake (alcohol preferring rats [1]; [6]): 22.4 ± 1.07 g
- Total Fluid Intake (alcohol preferring rats [1]; [6]): 120 ± 9.23 mL/kg
- Water Intake (alcohol preferring rats [1]; [6]): 26.2 ± 4.56 mL/kg
- Total Fluid Intake (alcohol preferring rats [1]; [7]): 46.7 ± 4.19 mL/kg
- Water Intake (alcohol preferring rats [1]; [7]): 9.93 ± 2.13 mL/kg
- Food Intake (alcohol preferring rats [1]; [8]): 22.2 ± 1.33 g
- Total Fluid Intake (alcohol preferring rats [1]; [8]): 129 ± 9.98 mL/kg
- Water Intake (alcohol preferring rats [1]; [8]): 24.3 ± 3.76 mL/kg
- Total Fluid Intake (alcohol preferring rats [1]; [9]): 38.2 ± 6.93 mL/kg
- Water Intake (alcohol preferring rats [1]; [9]): 11.4 ± 2.39 mL/kg
- Food Intake (alcohol preferring rats [1]; [10]): 21.5 ± 1.26 g
- Total Fluid Intake (alcohol preferring rats [1]; [10]): 123 ± 10.3 mL/kg
- Water Intake (alcohol preferring rats [1]; [10]): 34.0 ± 4.73 mL/kg
- Water Intake (alcohol preferring rats [2]; Day 1, 6 Hour Intake): 10 g/kg
- Water Intake (alcohol preferring rats [2]; Day 1, 24 Hour Intake): 19 g/kg
- Water Intake (alcohol preferring rats [2]; Day 2, 6 Hour Intake): 19 g/kg
- Water Intake (alcohol preferring rats [2]; Day 2, 24 Hour Intake): 32 g/kg
- Water Intake (alcohol preferring rats [2]; Day 3, 6 Hour Intake): 16 g/kg
- Water Intake (alcohol preferring rats [2]; Day 3, 24 Hour Intake): 29 g/kg
- Water Intake (alcohol preferring rats [2]; Day 4, 6 Hour Intake): 15 g/kg
- Water Intake (alcohol preferring rats [2]; Day 4, 24 Hour Intake): 31 g/kg
- Water Intake (alcohol preferring rats [2]; Day 5, 6 Hour Intake): 28 g/kg
- Water Intake (alcohol preferring rats [2]; Day 5, 24 Hour Intake): 37 g/kg
- Water Intake (alcohol preferring rats [2]; Day 6, 6 Hour Intake): 13 g/kg
- Water Intake (alcohol preferring rats [2]; Day 6, 24 Hour Intake): 25 g/kg
- Water Intake (alcohol preferring rats [2]; Day 7, 6 Hour Intake): 11 g/kg
- Water Intake (alcohol preferring rats [2]; Day 7, 24 Hour Intake): 16 g/kg
- Water Intake (alcohol preferring rats [2]; Day 8, 6 Hour Intake): 12 g/kg
- Water Intake (alcohol preferring rats [2]; Day 8, 24 Hour Intake): 23 g/kg
- Water Intake (alcohol preferring rats [2]; Day 9, 6 Hour Intake): 10 g/kg
- Water Intake (alcohol preferring rats [2]; Day 9, 24 Hour Intake): 22 g/kg
- Water Intake (alcohol preferring rats [2]; Day 10, 6 Hour Intake): 6 g/kg
- Water Intake (alcohol preferring rats [2]; Day 10, 24 Hour Intake): 12 g/kg
- Water Intake (alcohol preferring rats [2]; Day 11, 6 Hour Intake): 9 g/kg
- Water Intake (alcohol preferring rats [2]; Day 11, 24 Hour Intake): 9 g/kg
- Water Intake (alcohol preferring rats [2]; Day 12, 6 Hour Intake): 17 g/kg
- Water Intake (alcohol preferring rats [2]; Day 12, 24 Hour Intake): 17 g/kg
- Water Intake (alcohol preferring rats [2]; Day 13, 6 Hour Intake): 13 g/kg
- Water Intake (alcohol preferring rats [2]; Day 13, 24 Hour Intake): 13 g/kg
- Water Intake (alcohol preferring rats [2]; Day 14, 6 Hour Intake): 16 g/kg
- Water Intake (alcohol preferring rats [2]; Day 14, 24 Hour Intake): 28 g/kg
